# Results taken from the supplement of paper PMC6411743.
# ± gives the standard deviation of the averaged measurements. Some of the results follow.
# Biological target: T1, UniProt Q9BUA3
# T1 sequence (whole entry): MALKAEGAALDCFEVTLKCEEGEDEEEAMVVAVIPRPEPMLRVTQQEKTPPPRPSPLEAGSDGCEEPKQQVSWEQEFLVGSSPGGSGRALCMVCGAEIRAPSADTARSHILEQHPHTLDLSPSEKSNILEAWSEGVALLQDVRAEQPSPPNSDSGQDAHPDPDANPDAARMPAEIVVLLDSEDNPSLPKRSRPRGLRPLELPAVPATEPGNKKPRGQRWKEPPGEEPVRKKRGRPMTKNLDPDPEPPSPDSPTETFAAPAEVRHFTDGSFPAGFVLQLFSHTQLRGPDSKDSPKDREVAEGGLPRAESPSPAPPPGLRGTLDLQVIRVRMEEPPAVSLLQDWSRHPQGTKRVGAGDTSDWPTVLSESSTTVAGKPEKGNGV
# Experiment: NP40-soluble protein abundance relative to vehicle (solubility fold change) (ratio); higher = more soluble protein in presence of GTP
# Description: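 Solubility proteome profiling in Jurkat crude lysate. Lysate was treated with Mg-GTP (0.1-10 mM) for 10 min at room temperature and 3 min at 37 °C, then solubilised with 0.8% NP40 and benzonase, followed by ultracentrifugation. Proteins were quantified by TMT10 LC-MS/MS; the value is the NP40-soluble abundance relative to the NP40-processed vehicle, from 3 independent experiments.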
structure (smiles),measurement,setting,value
Nc1nc2c(ncn2[C@@H]2O[C@H](COP(=O)(O)OP(=O)(O)OP(=O)(O)O)[C@@H](O)[C@H]2O)c(=O)[nH]1 [guanosine triphosphate],NP40-soluble protein abundance,concentration: 0.1mM,0.958 ± 0.025
same,NP40-soluble protein abundance,concentration: 0.5mM,0.971 ± 0.054
same,NP40-soluble protein abundance,concentration: 1mM,1.02 ± 0.11
same,NP40-soluble protein abundance,concentration: 2mM,0.983 ± 0.091
same,NP40-soluble protein abundance,concentration: 4mM,0.989 ± 0.1
same,NP40-soluble protein abundance,concentration: 6mM,0.982 ± 0.1
same,NP40-soluble protein abundance,concentration: 8mM,1.02 ± 0.096
same,NP40-soluble protein abundance,concentration: 10mM,1.03 ± 0.066
